## Results of single-concentration screens

By UniProt entry, the sequences of proteins in these tests, tags left out. Residues count along the entry.
UniProt A4I591, 1-473: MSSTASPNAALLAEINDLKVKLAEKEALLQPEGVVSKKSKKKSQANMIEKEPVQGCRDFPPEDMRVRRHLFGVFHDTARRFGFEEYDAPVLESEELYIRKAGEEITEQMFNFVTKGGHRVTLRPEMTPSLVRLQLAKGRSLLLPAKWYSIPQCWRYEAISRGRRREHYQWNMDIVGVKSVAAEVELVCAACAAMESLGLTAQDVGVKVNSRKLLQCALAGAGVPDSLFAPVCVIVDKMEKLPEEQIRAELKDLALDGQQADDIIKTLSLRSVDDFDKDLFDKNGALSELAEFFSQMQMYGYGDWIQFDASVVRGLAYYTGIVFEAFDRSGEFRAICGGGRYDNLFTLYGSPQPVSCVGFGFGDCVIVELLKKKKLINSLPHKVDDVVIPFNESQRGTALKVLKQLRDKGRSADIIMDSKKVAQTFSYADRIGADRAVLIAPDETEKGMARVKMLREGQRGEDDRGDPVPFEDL
UniProt Q4DA54, 1-478: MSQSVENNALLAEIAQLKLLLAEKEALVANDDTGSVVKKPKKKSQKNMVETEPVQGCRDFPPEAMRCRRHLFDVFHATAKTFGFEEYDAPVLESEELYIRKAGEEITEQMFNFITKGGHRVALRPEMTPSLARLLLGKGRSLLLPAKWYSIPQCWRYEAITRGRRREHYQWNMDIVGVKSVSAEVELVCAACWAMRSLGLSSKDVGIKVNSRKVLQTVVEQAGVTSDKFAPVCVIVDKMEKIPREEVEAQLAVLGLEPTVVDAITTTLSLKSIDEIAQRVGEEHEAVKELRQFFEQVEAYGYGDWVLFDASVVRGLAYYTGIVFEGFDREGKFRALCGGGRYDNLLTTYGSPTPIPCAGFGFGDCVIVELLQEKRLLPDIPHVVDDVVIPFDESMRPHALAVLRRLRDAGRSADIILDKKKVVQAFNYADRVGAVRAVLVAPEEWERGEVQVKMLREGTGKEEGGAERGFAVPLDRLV
UniProt P9WPC5, whole entry: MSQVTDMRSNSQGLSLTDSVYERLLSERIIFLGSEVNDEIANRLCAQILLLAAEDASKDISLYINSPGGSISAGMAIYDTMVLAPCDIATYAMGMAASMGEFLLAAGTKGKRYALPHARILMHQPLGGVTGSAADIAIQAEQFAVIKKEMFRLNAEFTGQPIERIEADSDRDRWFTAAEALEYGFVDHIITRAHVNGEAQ
UniProt P9WPC3, whole entry partner: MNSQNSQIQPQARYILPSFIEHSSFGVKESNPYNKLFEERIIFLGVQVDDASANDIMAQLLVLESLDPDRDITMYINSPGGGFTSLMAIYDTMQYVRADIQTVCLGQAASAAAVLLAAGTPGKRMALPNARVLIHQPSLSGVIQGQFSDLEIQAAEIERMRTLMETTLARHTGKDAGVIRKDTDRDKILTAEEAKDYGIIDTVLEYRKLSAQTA

LiHisRS: 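Histidine-tRNA ligase, Leishmania infantum (UniProt A4I591). Enzyme assay of histidyl-tRNA synthetase; the read-out is not stated. Concentration: 30 µM. Direction is inferred from retests: higher values go with stronger inhibition. The assay is labelled LdHisRS but filed under L. infantum. Size under these conditions: about 69,000 compounds, about 410 of them at 50% or above in at least one test.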
TcHisRS: 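Enzyme assay of histidyl-tRNA synthetase; the read-out is not stated. Target: Histidine-tRNA ligase, Trypanosoma cruzi CL Brener (UniProt Q4DA54). Compounds at 30 µM. The record gives no direction; compounds that gave an IC50 in retests scored well above the rest, so higher reads as stronger inhibition. Size under these conditions: about 69,000 compounds, about 31 of them at 50% or above in at least one test.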
ClpP1P2: 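ClpP1P2, Mycobacterium tuberculosis (UniProt P9WPC5 and UniProt P9WPC3). Protease assay of ClpP1P2, read by the AMC dye that it sets free. Compounds at 50 µM. Direction is inferred from only a few compounds that gave an IC50; most scored high, so higher reads as stronger inhibition. Most other retested compounds had strongly negative values. Of about 69,000 compounds tested this way, about 10 (0.015%) reached 50% or more in at least one test.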

Each number is a percent effect as filed. The record does not define 0% and 100%; most values in the screen are far below 50% and negative numbers occur (in some assays of this library far below -100). This is an unselected part of the compounds tested.

Cc1cccc2nc(C(=O)N3CCCC[C@]4(C)NC(=O)CCC[C@H]34)cn12 gave LiHisRS: -3.158%; TcHisRS: 1.493%; ClpP1P2: -8.659%. With COc1c(C)cnc(CN2CCCCC2Cn2nc(C)nc2C)c1C (centres unmarked) the screen gave LiHisRS: -3.371%; TcHisRS: 5.263%; ClpP1P2: 9.452%. Result for CC(C)NC(=O)N1CCc2onc(C(=O)Nc3cccnc3)c2C1 was LiHisRS: 21.36%; TcHisRS: 4.854%; ClpP1P2: -4.064%. Cc1cc(C)c(CNc2ncnc3ccsc23)c(=O)[nH]1 read LiHisRS: 10.96%; TcHisRS: 4.762%; ClpP1P2: 3.299%. O=C1CC(N(C(=O)Cc2csc(-c3ccccc3)n2)C2CC2)C(=O)N1 (centres unmarked) read LiHisRS: 38.03%; TcHisRS: 8.28%; ClpP1P2: -0.7179%. For Cc1[nH]ncc1CCCNC(=O)N1CCCC(c2nncn2C)C1 (centres unmarked) the result was LiHisRS: 3.846%; TcHisRS: 1.143%; ClpP1P2: -1.537%. Result for Cc1cc(CN[C@@H](Cc2ccccc2)C(N)=O)c(C)s1 was LiHisRS: 8.547%; TcHisRS: 0.5405%; ClpP1P2: -21.53%.

Cc1nc(CN2CCCC(CCc3cccc(C(F)(F)F)c3)C2)co1 (centres unmarked) read LiHisRS: 9.917%; TcHisRS: -4.202%; ClpP1P2: -3.589%. Result for COc1ccc(CN2CCCC2Cn2nc(C)nc2C)cc1F (centres unmarked) was LiHisRS: 18.92%; TcHisRS: 3.383%; ClpP1P2: 5.833%. CCOc1ccc(Oc2cc(N)ccn2)cc1 gave LiHisRS: 10.34%; TcHisRS: 7.216%; ClpP1P2: 11.18%. With O=C(C1CCOC1)N1CCC2(CC1)COC2 (centres unmarked) the screen gave LiHisRS: 13.46%; TcHisRS: 6.796%; ClpP1P2: -0.9568%. Cn1cc(-c2nc(CN3CCCCC3Cn3cncn3)cs2)cn1 (centres unmarked) gave LiHisRS: 15.25%; TcHisRS: 6.857%; ClpP1P2: 1.911%. COC1(CNC(=O)CCCc2ccccc2)CCSC1 (centres unmarked) gave LiHisRS: -2.564%; TcHisRS: 0%; ClpP1P2: -11.74%. For O=C(Cc1ccccc1Cl)Nc1ccn(CCN2CCOCC2)n1 the result was LiHisRS: 17.6%; TcHisRS: -2.941%; ClpP1P2: -16.39%.

O=C(CCc1cccc(F)c1F)N1CCCC(n2cncn2)C1 (centres unmarked) gave LiHisRS: 5.357%; TcHisRS: -0.5814%; ClpP1P2: -3.312%. c1ccc(-c2noc(CNC3CCCN(c4cccnn4)C3)n2)nc1 (centres unmarked) read LiHisRS: 67.74%; TcHisRS: 6.548%; ClpP1P2: -3.766%. CC(C)NC(=O)N1CCC2(CC1)Cc1ccccc1CNC2=O read LiHisRS: 7.692%; TcHisRS: 5.028%; ClpP1P2: 2.171%. For CCC(N)c1ccccc1OCC(=O)N1CCCC1 (centres unmarked) the result was LiHisRS: 17.59%; TcHisRS: 5.572%; ClpP1P2: -15.89%. Result for CN(C(=O)CSc1ncc[nH]1)c1ccccc1 was LiHisRS: 1.064%; TcHisRS: 4.04%; ClpP1P2: 0.8946%. Cc1nc(CN(C)C2CCCN(c3ccccc3)C2)no1 (centres unmarked) gave LiHisRS: 12.17%; TcHisRS: 11.49%; ClpP1P2: -10.67%. Cc1ccc(C(=O)N2CCN(CCCSCC#N)CC2)o1 read LiHisRS: 13.33%; TcHisRS: 3.306%; ClpP1P2: -2.756%.

COCCO[C@H]1CCN(Cc2ccsc2)[C@H]1Cc1cccnc1 gave LiHisRS: 15.28%; TcHisRS: 8.411%; ClpP1P2: 8.436%. Result for Cn1cncc1-c1nnc([C@H]2CCN(Cc3ccc(CO)o3)C2)o1 was LiHisRS: 6.757%; TcHisRS: 1.087%; ClpP1P2: 17.2%. Cc1noc(C)c1CN1C[C@H](OCC(=O)N(C)C)[C@H]2COC[C@H]21 gave LiHisRS: 0%; TcHisRS: -1.149%; ClpP1P2: 5.754%. For O=C1[C@H]2CN(CC3CC3)C[C@H]2CN1Cc1cccc(F)c1 the result was LiHisRS: -1.504%; TcHisRS: 2.762%; ClpP1P2: -0.5957%. For COc1cc(NC(=O)NC2CCCC2)ccc1N1CCOC1=O the result was LiHisRS: 10.67%; TcHisRS: 0.5435%; ClpP1P2: -2.072%. CC(C)CN1C[C@@H]2C(=O)NC3(CCN(C(=O)c4cccnc4)CC3)[C@@H]2C1 read LiHisRS: 23.3%; TcHisRS: 6.796%; ClpP1P2: -9.122%. For COCc1nnn2c1CN(C(=O)c1ccnnc1)CCC2 the result was LiHisRS: 19.66%; TcHisRS: 3.743%; ClpP1P2: 5.096%.

O=C(O)c1c(Cl)ncn1-c1cccc2ccccc12 gave LiHisRS: 12.24%; TcHisRS: 6%; ClpP1P2: 8.923%. With Cc1ccc(C2CCCN2S(=O)(=O)N(C)CCc2ccccn2)o1 (centres unmarked) the screen gave LiHisRS: 14.68%; TcHisRS: 8.455%; ClpP1P2: -19.8%. Cc1nccn1CCC1CCCCN1C(=O)c1ccc2[nH]nnc2c1 (centres unmarked) gave LiHisRS: 18.45%; TcHisRS: 1.245%; ClpP1P2: -26.84%. O=C(Nc1ccccc1)N1CCn2c(nnc2C2CCCN2)C1 (centres unmarked) read LiHisRS: 5.517%; TcHisRS: 4.142%; ClpP1P2: -6.403%. Result for COCCn1cnnc1CN(C)c1nc(N)ncc1C was LiHisRS: 8.219%; TcHisRS: 5.464%; ClpP1P2: -1.268%. Result for CCC(NC(=O)COC)c1ccccc1OCC(=O)N1CCCC1 (centres unmarked) was LiHisRS: 15.74%; TcHisRS: 3.812%; ClpP1P2: -9.676%. With O=C(CC1COCCN1)NCCc1nc(-c2ccccn2)no1 (centres unmarked) the screen gave LiHisRS: -0.5236%; TcHisRS: 3.743%; ClpP1P2: -5.602%.

For CCN(CCO)Cc1cn(-c2cccc(F)c2)nc1-c1ccc(C)o1 the result was LiHisRS: 25%; TcHisRS: 5.419%; ClpP1P2: -3.941%. With Cc1ccc(C(=O)Nc2c(C(=O)N(C)C)nn(C)c2C)cc1C the screen gave LiHisRS: 15.52%; TcHisRS: 5.217%; ClpP1P2: -8.086%. Result for c1cc(CNCc2ccc(-n3cncn3)nc2)cc(OC2CCCC2)c1 was LiHisRS: 28.32%; TcHisRS: 11.61%; ClpP1P2: -0.4592%.

Once more, the final 4:

{"compound": "O=C(CC1COCCN1)NCCc1nc(-c2ccccn2)no1", "stereo": "centres unmarked", "LiHisRS": -0.5236, "TcHisRS": 3.743, "ClpP1P2": -5.602}
{"compound": "CCN(CCO)Cc1cn(-c2cccc(F)c2)nc1-c1ccc(C)o1", "LiHisRS": 25, "TcHisRS": 5.419, "ClpP1P2": -3.941}
{"compound": "Cc1ccc(C(=O)Nc2c(C(=O)N(C)C)nn(C)c2C)cc1C", "LiHisRS": 15.52, "TcHisRS": 5.217, "ClpP1P2": -8.086}
{"compound": "c1cc(CNCc2ccc(-n3cncn3)nc2)cc(OC2CCCC2)c1", "LiHisRS": 28.32, "TcHisRS": 11.61, "ClpP1P2": -0.4592}

The values are deposited in ChEMBL (CHEMBL3988442, “University of Dundee, Small-Polar-MMV Screening Library” (2021)).